# Experimental data: paper PMC8443253
# Chains of the proteins cited; added tags and fusions are not shown. Lines headed by an entry give the natural chain unless they say otherwise; changes in a name come on top.
# UniProt O60016: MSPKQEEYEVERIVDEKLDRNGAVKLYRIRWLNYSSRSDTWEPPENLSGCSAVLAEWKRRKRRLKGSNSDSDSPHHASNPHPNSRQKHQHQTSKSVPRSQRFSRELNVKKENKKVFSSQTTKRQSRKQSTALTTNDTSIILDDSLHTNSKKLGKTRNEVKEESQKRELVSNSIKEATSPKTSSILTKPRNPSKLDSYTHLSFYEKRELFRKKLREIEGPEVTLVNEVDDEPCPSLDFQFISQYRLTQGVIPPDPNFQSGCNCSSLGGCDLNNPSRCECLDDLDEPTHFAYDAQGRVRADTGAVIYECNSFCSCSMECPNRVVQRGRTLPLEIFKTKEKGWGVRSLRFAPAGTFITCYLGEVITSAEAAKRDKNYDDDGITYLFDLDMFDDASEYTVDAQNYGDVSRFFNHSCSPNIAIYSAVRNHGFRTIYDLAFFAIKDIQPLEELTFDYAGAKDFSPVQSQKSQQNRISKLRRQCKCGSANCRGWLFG
# No constants are given. Whether binding was seen depends on the method and setting. Binding seen in cells or lysates may run through a third protein. Some results given as binding are weak or reduced against the parent protein; the word gives no strength. Sequences can lack the tags named with a protein.
# Target: T1, Rik1-13myc (S. pombe) (UniProt Q10426)
# T1 sequence: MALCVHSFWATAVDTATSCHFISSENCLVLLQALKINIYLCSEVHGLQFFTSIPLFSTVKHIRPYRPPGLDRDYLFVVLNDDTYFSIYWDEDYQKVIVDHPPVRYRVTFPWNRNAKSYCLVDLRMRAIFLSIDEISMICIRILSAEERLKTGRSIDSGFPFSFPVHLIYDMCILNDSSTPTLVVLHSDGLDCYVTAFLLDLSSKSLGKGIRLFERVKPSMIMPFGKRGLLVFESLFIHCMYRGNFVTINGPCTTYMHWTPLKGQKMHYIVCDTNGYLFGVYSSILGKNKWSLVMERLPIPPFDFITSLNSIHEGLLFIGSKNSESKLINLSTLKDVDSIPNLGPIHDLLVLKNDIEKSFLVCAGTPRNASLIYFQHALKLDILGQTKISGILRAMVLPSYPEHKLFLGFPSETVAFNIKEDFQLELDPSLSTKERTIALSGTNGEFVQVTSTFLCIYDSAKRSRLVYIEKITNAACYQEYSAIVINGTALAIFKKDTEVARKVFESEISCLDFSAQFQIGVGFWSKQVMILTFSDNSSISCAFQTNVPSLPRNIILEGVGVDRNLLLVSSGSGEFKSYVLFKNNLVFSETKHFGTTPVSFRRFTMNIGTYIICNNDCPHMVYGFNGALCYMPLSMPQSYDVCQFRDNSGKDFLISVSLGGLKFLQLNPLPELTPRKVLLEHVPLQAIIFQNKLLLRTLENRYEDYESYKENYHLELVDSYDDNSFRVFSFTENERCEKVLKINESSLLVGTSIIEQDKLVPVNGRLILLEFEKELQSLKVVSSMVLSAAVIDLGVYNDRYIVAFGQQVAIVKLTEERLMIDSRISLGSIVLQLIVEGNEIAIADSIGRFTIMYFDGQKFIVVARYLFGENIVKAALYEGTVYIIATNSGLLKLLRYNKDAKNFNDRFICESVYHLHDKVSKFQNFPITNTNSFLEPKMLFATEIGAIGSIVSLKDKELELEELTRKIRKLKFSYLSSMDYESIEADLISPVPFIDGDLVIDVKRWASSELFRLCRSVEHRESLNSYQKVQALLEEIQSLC
# Test: co-IP
row,Substance,binding
1,3xFLAG-clr4-F256A/F310A/F427A (from UniProt O60016 1-490),binds
2,3xFLAG-Clr4 (from UniProt O60016 1-490),binds
3,3xFLAG-clr4-D253G/P254G/N255S/F256G (from UniProt O60016 1-490),binds
